Laboratory results from the supplement of paper PMC10060354, “Discovery of a small molecule ligand of FRS2 that inhibits invasion and tumor growth” (Cellular Oncology, 2022).

The chains behind the UniProt entries cited, without tags or fusion partners. Where a name states a change or a piece, a line headed by the entry shows the natural chain unless it says otherwise.
UniProt Q8N2K0: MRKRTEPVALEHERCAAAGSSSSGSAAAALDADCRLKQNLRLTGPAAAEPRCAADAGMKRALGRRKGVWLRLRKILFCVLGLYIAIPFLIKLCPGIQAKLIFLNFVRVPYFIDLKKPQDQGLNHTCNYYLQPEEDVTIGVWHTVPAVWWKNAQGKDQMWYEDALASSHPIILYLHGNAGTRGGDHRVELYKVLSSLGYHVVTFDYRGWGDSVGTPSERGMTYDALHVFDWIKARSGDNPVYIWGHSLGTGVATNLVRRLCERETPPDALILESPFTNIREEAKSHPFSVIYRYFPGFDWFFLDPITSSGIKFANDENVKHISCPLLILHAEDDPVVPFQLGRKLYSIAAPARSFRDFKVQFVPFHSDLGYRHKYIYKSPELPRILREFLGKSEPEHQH
UniProt P63146, whole entry: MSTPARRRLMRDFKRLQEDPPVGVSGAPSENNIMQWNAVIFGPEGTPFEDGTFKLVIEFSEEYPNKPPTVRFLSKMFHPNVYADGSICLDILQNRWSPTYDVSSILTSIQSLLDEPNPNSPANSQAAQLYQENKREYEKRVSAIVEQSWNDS
UniProt Q9H3F6: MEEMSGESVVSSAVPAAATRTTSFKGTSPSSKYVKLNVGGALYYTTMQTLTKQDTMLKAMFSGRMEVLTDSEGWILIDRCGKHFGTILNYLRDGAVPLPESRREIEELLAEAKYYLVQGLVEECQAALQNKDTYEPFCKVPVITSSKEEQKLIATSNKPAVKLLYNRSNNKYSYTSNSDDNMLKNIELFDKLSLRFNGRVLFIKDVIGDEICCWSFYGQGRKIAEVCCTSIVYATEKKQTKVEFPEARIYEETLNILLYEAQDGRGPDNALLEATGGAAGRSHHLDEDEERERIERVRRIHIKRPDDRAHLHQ
UniProt Q6UW02: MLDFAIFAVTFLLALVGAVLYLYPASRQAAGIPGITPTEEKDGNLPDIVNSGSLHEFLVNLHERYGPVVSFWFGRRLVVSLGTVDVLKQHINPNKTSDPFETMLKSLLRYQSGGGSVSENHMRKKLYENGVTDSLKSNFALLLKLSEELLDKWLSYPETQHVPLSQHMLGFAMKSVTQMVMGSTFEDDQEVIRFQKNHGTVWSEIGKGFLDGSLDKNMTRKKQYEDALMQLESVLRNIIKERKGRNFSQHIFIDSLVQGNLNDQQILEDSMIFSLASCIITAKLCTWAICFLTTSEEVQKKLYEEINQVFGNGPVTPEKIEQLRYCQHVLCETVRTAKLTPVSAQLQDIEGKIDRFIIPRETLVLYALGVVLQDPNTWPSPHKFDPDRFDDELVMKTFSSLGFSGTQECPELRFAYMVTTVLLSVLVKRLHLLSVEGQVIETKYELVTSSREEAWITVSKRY
UniProt Q9P287, whole entry: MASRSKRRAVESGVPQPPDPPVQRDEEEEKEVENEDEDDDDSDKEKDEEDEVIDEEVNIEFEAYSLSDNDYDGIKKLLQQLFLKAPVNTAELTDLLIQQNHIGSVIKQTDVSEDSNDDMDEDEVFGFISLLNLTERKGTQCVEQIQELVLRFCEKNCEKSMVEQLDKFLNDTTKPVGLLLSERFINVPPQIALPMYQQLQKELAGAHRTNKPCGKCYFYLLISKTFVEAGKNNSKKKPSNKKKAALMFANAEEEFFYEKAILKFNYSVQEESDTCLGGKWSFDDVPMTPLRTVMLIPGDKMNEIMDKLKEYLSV
UniProt Q5T1J5: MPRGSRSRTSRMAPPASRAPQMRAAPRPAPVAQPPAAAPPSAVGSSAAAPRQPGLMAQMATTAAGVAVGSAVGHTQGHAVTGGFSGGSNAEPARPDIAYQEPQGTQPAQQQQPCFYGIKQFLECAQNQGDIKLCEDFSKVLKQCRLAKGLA
UniProt Q03135: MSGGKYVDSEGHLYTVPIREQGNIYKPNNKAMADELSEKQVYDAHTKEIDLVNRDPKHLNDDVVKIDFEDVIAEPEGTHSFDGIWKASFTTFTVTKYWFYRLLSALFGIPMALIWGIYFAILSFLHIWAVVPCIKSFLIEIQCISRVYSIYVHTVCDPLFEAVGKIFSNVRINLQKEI
UniProt O00468: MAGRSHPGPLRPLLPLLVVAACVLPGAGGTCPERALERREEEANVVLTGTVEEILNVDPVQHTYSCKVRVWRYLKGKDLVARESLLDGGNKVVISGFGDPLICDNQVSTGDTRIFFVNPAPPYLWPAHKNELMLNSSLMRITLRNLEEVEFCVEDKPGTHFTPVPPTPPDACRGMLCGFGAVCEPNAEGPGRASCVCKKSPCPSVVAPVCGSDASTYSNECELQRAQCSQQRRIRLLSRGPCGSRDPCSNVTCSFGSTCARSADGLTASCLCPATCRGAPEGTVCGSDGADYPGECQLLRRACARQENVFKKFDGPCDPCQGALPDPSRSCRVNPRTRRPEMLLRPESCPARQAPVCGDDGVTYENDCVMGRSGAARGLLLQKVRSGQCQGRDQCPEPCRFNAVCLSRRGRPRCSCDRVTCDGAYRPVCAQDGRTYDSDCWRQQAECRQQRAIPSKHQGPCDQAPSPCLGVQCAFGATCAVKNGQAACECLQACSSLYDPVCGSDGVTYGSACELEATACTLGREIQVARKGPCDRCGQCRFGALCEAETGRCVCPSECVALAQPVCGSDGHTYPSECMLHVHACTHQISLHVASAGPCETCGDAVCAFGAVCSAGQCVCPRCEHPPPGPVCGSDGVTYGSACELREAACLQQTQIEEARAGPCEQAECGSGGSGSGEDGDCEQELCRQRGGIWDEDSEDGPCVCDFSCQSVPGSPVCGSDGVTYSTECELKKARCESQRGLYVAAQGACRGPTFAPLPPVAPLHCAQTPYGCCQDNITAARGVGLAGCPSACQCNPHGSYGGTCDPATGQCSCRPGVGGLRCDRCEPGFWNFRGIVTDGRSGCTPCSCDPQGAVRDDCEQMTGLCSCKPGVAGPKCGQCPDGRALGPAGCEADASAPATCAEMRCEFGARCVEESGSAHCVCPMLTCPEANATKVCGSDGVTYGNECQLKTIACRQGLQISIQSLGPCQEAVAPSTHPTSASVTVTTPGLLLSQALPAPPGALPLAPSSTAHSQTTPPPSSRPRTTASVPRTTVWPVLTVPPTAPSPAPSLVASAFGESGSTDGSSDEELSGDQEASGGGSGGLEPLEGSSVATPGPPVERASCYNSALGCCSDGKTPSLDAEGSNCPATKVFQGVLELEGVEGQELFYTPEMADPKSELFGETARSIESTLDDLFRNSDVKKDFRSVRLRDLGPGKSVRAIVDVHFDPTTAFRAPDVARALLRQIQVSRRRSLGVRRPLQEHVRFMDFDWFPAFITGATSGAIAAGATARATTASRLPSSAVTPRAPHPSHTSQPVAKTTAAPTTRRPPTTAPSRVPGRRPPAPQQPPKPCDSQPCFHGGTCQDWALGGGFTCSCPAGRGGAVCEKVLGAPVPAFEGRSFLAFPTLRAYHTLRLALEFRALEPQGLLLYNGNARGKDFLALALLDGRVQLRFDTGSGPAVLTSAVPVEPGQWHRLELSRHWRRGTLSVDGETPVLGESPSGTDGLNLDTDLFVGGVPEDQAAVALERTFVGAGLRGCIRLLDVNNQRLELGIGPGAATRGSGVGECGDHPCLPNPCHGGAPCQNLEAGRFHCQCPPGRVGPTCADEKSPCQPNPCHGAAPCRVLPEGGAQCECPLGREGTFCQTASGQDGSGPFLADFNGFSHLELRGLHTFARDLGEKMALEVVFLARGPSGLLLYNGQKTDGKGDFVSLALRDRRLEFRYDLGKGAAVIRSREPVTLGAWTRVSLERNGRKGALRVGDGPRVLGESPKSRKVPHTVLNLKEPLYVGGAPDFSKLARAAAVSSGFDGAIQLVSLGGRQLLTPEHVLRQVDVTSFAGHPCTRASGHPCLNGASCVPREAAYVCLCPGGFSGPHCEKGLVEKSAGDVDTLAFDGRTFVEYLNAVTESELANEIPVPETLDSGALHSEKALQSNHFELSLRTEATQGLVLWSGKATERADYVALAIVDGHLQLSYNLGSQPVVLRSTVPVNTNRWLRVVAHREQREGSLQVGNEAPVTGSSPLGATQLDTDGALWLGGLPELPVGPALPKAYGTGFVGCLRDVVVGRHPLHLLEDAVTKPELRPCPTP
UniProt Q96Q05, whole entry: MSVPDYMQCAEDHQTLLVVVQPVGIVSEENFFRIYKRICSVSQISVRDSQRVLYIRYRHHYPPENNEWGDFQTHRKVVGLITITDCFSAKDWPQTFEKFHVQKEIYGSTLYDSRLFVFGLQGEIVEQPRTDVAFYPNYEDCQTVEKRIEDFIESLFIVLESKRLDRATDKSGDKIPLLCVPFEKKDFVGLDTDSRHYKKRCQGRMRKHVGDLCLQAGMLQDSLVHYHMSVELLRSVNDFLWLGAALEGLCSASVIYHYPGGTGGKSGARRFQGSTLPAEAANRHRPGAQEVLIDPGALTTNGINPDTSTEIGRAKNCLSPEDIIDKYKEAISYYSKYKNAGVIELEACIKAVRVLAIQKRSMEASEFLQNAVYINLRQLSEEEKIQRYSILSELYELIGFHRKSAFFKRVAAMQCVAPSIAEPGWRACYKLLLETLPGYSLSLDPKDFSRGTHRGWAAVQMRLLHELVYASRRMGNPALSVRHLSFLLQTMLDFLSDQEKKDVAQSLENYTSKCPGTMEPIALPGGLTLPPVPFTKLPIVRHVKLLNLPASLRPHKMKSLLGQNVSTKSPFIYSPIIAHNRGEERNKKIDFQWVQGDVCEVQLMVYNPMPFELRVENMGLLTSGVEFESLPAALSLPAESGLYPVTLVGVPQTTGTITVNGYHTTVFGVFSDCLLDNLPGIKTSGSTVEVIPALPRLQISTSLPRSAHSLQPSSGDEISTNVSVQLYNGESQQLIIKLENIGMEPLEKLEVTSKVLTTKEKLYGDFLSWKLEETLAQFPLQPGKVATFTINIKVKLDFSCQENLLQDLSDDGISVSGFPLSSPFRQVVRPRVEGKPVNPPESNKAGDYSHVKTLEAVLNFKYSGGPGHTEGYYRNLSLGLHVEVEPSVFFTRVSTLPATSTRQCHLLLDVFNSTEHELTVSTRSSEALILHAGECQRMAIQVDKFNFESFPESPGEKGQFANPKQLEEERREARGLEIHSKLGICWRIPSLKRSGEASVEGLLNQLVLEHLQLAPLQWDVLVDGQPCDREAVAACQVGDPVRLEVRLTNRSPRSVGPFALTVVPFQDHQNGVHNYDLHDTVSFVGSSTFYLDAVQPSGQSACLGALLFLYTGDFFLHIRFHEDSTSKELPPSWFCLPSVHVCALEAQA
UniProt O14907: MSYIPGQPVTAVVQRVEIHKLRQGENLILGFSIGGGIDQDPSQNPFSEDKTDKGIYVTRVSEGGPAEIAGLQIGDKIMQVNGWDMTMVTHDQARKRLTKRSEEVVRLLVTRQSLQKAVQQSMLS
UniProt Q9Y232: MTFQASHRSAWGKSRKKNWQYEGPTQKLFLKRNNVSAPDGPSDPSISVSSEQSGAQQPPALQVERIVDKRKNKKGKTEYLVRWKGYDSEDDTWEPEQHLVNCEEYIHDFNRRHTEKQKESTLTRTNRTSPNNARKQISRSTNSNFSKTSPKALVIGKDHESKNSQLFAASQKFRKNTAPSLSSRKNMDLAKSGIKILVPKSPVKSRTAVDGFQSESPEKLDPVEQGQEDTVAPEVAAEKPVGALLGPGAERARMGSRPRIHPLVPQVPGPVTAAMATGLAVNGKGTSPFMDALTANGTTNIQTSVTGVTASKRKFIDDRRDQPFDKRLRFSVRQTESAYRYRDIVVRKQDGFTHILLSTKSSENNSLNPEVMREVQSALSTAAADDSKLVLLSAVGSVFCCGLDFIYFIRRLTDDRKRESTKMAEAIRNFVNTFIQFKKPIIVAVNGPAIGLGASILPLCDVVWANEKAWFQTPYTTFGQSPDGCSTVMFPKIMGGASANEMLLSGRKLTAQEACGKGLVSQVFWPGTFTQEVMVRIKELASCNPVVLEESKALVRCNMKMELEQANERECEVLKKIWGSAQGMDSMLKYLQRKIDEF
UniProt Q6UVJ0: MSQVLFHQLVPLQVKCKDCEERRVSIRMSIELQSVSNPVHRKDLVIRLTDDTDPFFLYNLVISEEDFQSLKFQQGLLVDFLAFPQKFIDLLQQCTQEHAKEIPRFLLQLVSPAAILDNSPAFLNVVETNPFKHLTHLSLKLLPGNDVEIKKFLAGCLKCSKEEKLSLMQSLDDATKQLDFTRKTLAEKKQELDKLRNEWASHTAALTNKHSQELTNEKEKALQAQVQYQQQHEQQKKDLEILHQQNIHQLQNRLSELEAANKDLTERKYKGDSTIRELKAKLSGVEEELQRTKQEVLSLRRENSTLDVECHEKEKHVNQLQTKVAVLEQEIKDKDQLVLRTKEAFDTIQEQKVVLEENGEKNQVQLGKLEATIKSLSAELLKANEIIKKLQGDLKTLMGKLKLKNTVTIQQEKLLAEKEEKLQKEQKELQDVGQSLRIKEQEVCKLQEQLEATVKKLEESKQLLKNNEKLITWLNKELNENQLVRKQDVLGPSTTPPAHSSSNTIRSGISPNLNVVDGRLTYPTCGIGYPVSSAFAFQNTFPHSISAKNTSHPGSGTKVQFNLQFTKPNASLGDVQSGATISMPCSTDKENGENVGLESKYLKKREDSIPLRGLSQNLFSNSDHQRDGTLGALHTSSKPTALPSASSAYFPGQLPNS

Compound: [O-][N+](C(C1=C(C(O)=C2)NC(C(C=C3)=CC=C3Cl)C4C1C=CC4)=C2Cl)=O
Experiment: melting temperature shift (compound 7 minus DMSO); higher = compound stabilises the protein
Details: 10 µM
Description: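 Thermal proteome profiling (TMT mass spectrometry) in intact DAOY medulloblastoma cells or DAOY lysates treated with 10 µM compound 7 or DMSO, heated at 10 temperatures from 40.5 to 73.8 °C for 3 min. Melting curves were fitted with the Bioconductor TPP package, and the melting point difference between compound and vehicle is reported per protein (single curve per condition).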

[1] = system: DAOY cell lysate, treatment time: 20 min, 4 °C
[2] = system: intact DAOY cells, treatment time: 90 min, 37 °C

Target | melting temperature shift [1] | melting temperature shift [2]
UniProt O14950 | -0.207 °C | -0.879 °C
ABHD12 (UniProt Q8N2K0) | -0.406 °C | -0.382 °C
UBE2B (UniProt P63146) | -0.477 °C | -0.197 °C
NRF1 (UniProt Q16656) | 0.186 °C | 0.333 °C
SLC30A5 (UniProt Q8TAD4) | 0.666 °C | –
UniProt Q7Z7N9 | -0.0357 °C | –
A0AVI2 | – | 0.656 °C
UniProt Q96PP9 | – | 0.088 °C
ANAPC5 (UniProt Q9UJX4) | -0.263 °C | 1.55 °C
AP2M1 (UniProt Q96CW1) | -0.731 °C | 0.0466 °C
KCTD12 (UniProt Q96CX2) | -2.09 °C | –
PPP2R5A (UniProt Q15172) | 2.41 °C | –
UniProt P15336 | – | 0.628 °C
LRRC41 (UniProt Q15345) | -0.981 °C | –
UniProt A2RU37 | 3.14 °C | –
THTPA (UniProt Q9BU02) | -0.261 °C | –
FMR1 (UniProt Q06787) | 0.146 °C | -0.339 °C
UniProt Q9NQS7 | 0.795 °C | –
STEAP3 (UniProt Q658P3) | 1.8 °C | -0.373 °C
ATP6V1H (UniProt Q9UI12) | -0.965 °C | 0.552 °C
UniProt P60602 | 0.628 °C | -0.299 °C
PJA2 (UniProt O43164) | 0.174 °C | -1.45 °C
CISD1 (UniProt Q9NZ45) | 1.7 °C | –
UAP1 (UniProt Q16222) | -0.331 °C | -0.398 °C

Target | melting temperature shift [1] | melting temperature shift [2]
ACOX1 (UniProt Q15067) | 0.719 °C | 0.545 °C
CLMP (UniProt Q9H6B4) | – | 2.53 °C
KIF2C (UniProt Q99661) | -1.4 °C | -0.00835 °C
NUP133 (UniProt Q8WUM0) | 0.16 °C | -0.212 °C
BIRC2 (UniProt Q13490) | -0.663 °C | 0.465 °C
DTL (UniProt Q9NZJ0) | – | 0.709 °C
TMUB2 (UniProt Q71RG4) | 2.03 °C | –
UniProt P48378 | – | -0.798 °C
RPAP3 (UniProt Q9H6T3) | -0.711 °C | -0.483 °C
UniProt A8MTJ3 | – | 0.268 °C
RNF5 (UniProt Q99942) | 1.41 °C | 0.398 °C
UniProt O95057 | – | -2.84 °C
NEDD4L (UniProt Q96PU5) | 0.253 °C | 0.972 °C
QTRTD1 (UniProt Q9H974) | -1.72 °C | 0.946 °C
TTC5 (UniProt Q8N0Z6) | -0.489 °C | -2.66 °C
KCTD10 (UniProt Q9H3F6) | 1.5 °C | -0.398 °C
UniProt Q86U28 | 0.198 °C | -0.516 °C
KIAA0319L (UniProt Q8IZA0) | 3.63 °C | –
NCK1 (UniProt P16333) | -0.353 °C | 0.968 °C
CYP20A1 (UniProt Q6UW02) | 0.376 °C | -1.7 °C
UniProt O94851 | -0.216 °C | -0.502 °C
SLC9A3R1 (UniProt O14745) | -0.535 °C | –
HACD3 (UniProt Q9P035) | 0.996 °C | -0.845 °C
RAB5B (UniProt P61020) | -0.305 °C | -0.601 °C

For reference, some entries already given.
Target | melting temperature shift [1] | melting temperature shift [2]
FMR1 (UniProt Q06787) | 0.146 °C | -0.339 °C
UniProt Q9NQS7 | 0.795 °C | –
STEAP3 (UniProt Q658P3) | 1.8 °C | -0.373 °C
ATP6V1H (UniProt Q9UI12) | -0.965 °C | 0.552 °C
UniProt P60602 | 0.628 °C | -0.299 °C
PJA2 (UniProt O43164) | 0.174 °C | -1.45 °C
CISD1 (UniProt Q9NZ45) | 1.7 °C | –
UAP1 (UniProt Q16222) | -0.331 °C | -0.398 °C
ACOX1 (UniProt Q15067) | 0.719 °C | 0.545 °C
CLMP (UniProt Q9H6B4) | – | 2.53 °C
KIF2C (UniProt Q99661) | -1.4 °C | -0.00835 °C
NUP133 (UniProt Q8WUM0) | 0.16 °C | -0.212 °C
BIRC2 (UniProt Q13490) | -0.663 °C | 0.465 °C
DTL (UniProt Q9NZJ0) | – | 0.709 °C
TMUB2 (UniProt Q71RG4) | 2.03 °C | –
UniProt P48378 | – | -0.798 °C
RPAP3 (UniProt Q9H6T3) | -0.711 °C | -0.483 °C
UniProt A8MTJ3 | – | 0.268 °C
RNF5 (UniProt Q99942) | 1.41 °C | 0.398 °C
UniProt O95057 | – | -2.84 °C
NEDD4L (UniProt Q96PU5) | 0.253 °C | 0.972 °C
QTRTD1 (UniProt Q9H974) | -1.72 °C | 0.946 °C
TTC5 (UniProt Q8N0Z6) | -0.489 °C | -2.66 °C
KCTD10 (UniProt Q9H3F6) | 1.5 °C | -0.398 °C
UniProt Q86U28 | 0.198 °C | -0.516 °C
KIAA0319L (UniProt Q8IZA0) | 3.63 °C | –
NCK1 (UniProt P16333) | -0.353 °C | 0.968 °C
CYP20A1 (UniProt Q6UW02) | 0.376 °C | -1.7 °C
UniProt O94851 | -0.216 °C | -0.502 °C

(cont.)

Target | melting temperature shift [1] | melting temperature shift [2]
UniProt P05062 | – | 1.56 °C
UniProt Q14520 | -1.01 °C | 0.0417 °C
SRSF1 (UniProt Q07955) | -0.365 °C | –
FBXW11 (UniProt Q9UKB1) | -0.607 °C | -1.66 °C
UniProt P17252 | -0.437 °C | -2.04 °C
H2AFY (UniProt O75367) | – | -0.259 °C
MRPL55 (UniProt Q7Z7F7) | -3.39 °C | –
CDC37L1 (UniProt Q7L3B6) | -1.58 °C | 0.0339 °C
UniProt Q58FF8 | – | -0.438 °C
RAB14 (UniProt P61106) | 0.868 °C | -0.281 °C
UniProt Q4G0X4 | -1.59 °C | –
BCCIP (UniProt Q9P287) | -0.449 °C | 0.0192 °C
UniProt Q13454 | – | -1.53 °C
UniProt Q9Y6Q5 | – | 0.558 °C
GNL3 (UniProt Q9BVP2) | 0.331 °C | 4.8 °C
UniProt Q5T1J5 | – | 0.235 °C
UniProt A6ZKI3 | -0.139 °C | –
FBXO7 (UniProt Q9Y3I1) | -0.525 °C | -0.607 °C
HECTD3 (UniProt Q5T447) | -0.102 °C | -0.653 °C
PPP4R2 (UniProt Q9NY27) | -0.992 °C | -0.105 °C
UniProt Q15041 | 1.5 °C | –
AKT1S1 (UniProt Q96B36) | -6.86 °C | 0.565 °C
RPS5 (UniProt P46782) | 0.336 °C | -1.15 °C
ATP1B3 (UniProt P54709) | 2.67 °C | -0.377 °C

Target | melting temperature shift [1] | melting temperature shift [2]
UniProt P83881 | 0.588 °C | -0.809 °C
UniProt P45984 | -1.35 °C | -0.642 °C
TRAPPC3 (UniProt O43617) | -2.07 °C | -0.709 °C
FAM20B (UniProt O75063) | 0.878 °C | 1.24 °C
POLD3 (UniProt Q15054) | -0.0315 °C | -0.779 °C
UniProt Q9HCL0 | – | -0.309 °C
UniProt P13796 | 0.532 °C | 0.682 °C
MRPS18B (UniProt Q9Y676) | 0.717 °C | -0.967 °C
UniProt P20336 | – | -1.33 °C
BAZ1B (UniProt Q9UIG0) | 0.652 °C | -0.436 °C
CAV1 (UniProt Q03135) | 0.0974 °C | –
CASP7 (UniProt P55210) | -1.71 °C | -0.107 °C
AGRN (UniProt O00468) | -0.385 °C | 0.204 °C
EDC4 (UniProt Q6P2E9) | -0.972 °C | 0.911 °C
ZNF830 (UniProt Q96NB3) | 3.03 °C | –
UniProt O95873 | -1.29 °C | –
UniProt Q9NZA1 | – | -0.397 °C
UniProt O60220 | -1.49 °C | –
DDHD2 (UniProt O94830) | 3.35 °C | -1.22 °C
MTX3 (UniProt Q5HYI7) | -1.76 °C | 0.811 °C
UniProt Q9GZV4 | -1.82 °C | –
UniProt Q8TER5 | 2.11 °C | –
NUP214 (UniProt P35658) | -0.181 °C | -0.0457 °C
MPHOSPH10 (UniProt O00566) | – | 2.14 °C

Target | melting temperature shift [1] | melting temperature shift [2]
UniProt Q9BZM5 | 1.67 °C | –
NUP43 (UniProt Q8NFH3) | -0.949 °C | -1.96 °C
TRAPPC9 (UniProt Q96Q05) | 0.0171 °C | 0.54 °C
UniProt Q9BUA3 | 0.75 °C | –
UniProt Q14409 | – | -1.14 °C
UniProt P50443 | 1.29 °C | 0.248 °C
UniProt Q9H492 | – | 0.0355 °C
TAX1BP3 (UniProt O14907) | -0.306 °C | 0.962 °C
UniProt Q99879 | – | -0.488 °C
CDYL (UniProt Q9Y232) | -0.0958 °C | 1.39 °C
BLOC1S5 (UniProt Q8TDH9) | – | 2.87 °C
UniProt Q9NW81 | 3.03 °C | -0.564 °C
HDLBP (UniProt Q00341) | -0.297 °C | -0.324 °C
RAB1B (UniProt Q9H0U4) | 1.2 °C | -0.766 °C
DYNC2H1 (UniProt Q8NCM8) | -1.76 °C | –
UniProt Q96DT5 | -2.98 °C | –
UniProt Q8N6L1 | 0.628 °C | -0.329 °C
DNAJC11 (UniProt Q9NVH1) | 0.93 °C | 0.136 °C
PRKAA2 (UniProt P54646) | -0.309 °C | 3.34 °C
USP22 (UniProt Q9UPT9) | -0.0365 °C | 0.157 °C
DMAP1 (UniProt Q9NPF5) | -3.63 °C | –
LATS1 (UniProt O95835) | -0.868 °C | –
SIL1 (UniProt Q9H173) | 0.451 °C | 0.462 °C
SASS6 (UniProt Q6UVJ0) | -0.0814 °C | -0.803 °C

Repeats are few or missing, and single values can be far off.
